Measured values as given in publication PMC9788671.

Sequences of proteins named here, by UniProt entry; tags and fusion partners are left off.
UniProt Q9NZV8: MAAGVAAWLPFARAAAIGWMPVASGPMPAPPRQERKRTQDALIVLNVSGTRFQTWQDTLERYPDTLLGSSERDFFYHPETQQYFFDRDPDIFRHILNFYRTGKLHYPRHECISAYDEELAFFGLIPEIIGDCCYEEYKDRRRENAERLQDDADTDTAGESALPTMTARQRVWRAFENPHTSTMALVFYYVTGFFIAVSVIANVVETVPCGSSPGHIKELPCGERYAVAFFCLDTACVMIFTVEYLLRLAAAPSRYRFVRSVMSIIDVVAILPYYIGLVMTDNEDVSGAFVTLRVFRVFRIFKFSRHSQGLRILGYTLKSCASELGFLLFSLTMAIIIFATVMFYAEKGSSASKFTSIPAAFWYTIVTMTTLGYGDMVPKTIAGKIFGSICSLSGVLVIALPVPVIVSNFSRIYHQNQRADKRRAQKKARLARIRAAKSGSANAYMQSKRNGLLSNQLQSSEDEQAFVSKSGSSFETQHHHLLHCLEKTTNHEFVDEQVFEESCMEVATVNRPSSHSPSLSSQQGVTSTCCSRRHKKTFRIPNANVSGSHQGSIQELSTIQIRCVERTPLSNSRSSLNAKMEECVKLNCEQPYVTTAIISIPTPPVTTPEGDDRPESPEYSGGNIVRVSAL

Target: TAP-Kv4.2 (human) (UniProt Q9NZV8)
Test: affinity purification with mass spectrometry; TAP-Kv4.2 expressed by lentivirus in rat hippocampal neurons, harvested at DIV14; strong lysis buffer (1% Triton X-100, 0.5% deoxycholate in PBS, pH 7.4); streptavidin resin, then calmodulin resin; gel cut into high and low molecular weight fragments; no MS of the control sample

- binding: binds
B1: Sart1 (protein, UniProt Q5XIW8 1-806)
chain: MGSSKKHRGEKEAAGTTAAAGTGGTTEQPPRHREHKKHKHRSSGGGSSGGERRKRSRERGAERGSGRRGAEAEARSGAHGRERSQAEPSERRVKREKRDEGYEAAASSKASSGDASSLSIEETNKLRAKLGLKPLEVNAVKKEAGTKEEPVAADVINPMALRQREELREKLAAAKEKRLLNQKLGKIKTLGEDDPWLDDTAAWIERSRQLQKEKDLAEKRAKLLEEMDQEFGVSTLVEEEFEQRRQDLYSARDLQGLTVEHAIDSFREGETVVLTLKDKGVLQEGEDVLVNVNMVDKERADKNVELRKKKPDYLPYAEDESVDDLAQQKPRSILAKYDEELEGERPHSFRLEQGGMADGLRERELEEIRTKLRLQAQSLNTVGPRLASEYLSPEEMVTFKKTKRRVKKIRKKEKEVIMRADDLLPLGEDQTQDGDFGSRLRGRGRRRVPEVEEEALEDEEKDPVAQPPPSDDTRVENMDISDEEDGGALPSGPPELEEDEAELELQKQLEKGRRLRQLQQLQQLRDSGEKVLEIVKKLESRQRGWEEEEDPERKGTIVFNATSEFCRTLGEIPTYGLAGNREEQEELMDFERDEERSANGGSESDGEENIGWSTVNLDEEKQHQDFSASSTTILDEEPIVNRGLAAALLLCQNKGLLETTVQKVARVKAPNKSLPSAVYCIEDKMAIDDKYSRREEYRGFTQDFKEKDGYKPDVKIEYVDETGRKLTPKEAFRQLSHRFHGKGSGKMKTERRMKKLDEEALLKKMSSSDTPLGTVALLQEKQKAQKTPYIVLSGSGKSMNANTITK

- binding: binds
B2: Myo1b (protein, UniProt Q05096 1-1136)
chain: MAKKEVKSSLLDNMIGVGDTVLLEPLNEETFIDNLKKRFDHNEIYTYIGSVVISVNPYRSLPIYSPEKVEDYRNRNFYELSPHIFALSDEAYRSLRDQDKDQCILITGESGAGKTEASKLVMSYVAAVCGKGAEVNQVKEQLLQSTPVLEAFGNAKTVRNDNSSRFGKYMDIEFDFKGDPLGGVISNYLLEKSRVVKQPRGERNFHVFYQLLSGASEELLHKLKLERDFSRYNYLSLDSAKVNGVDDAANFRTVRNAMQIVGFSDPEAESVLEVVAAVLKLGNIEFKPESRMNGLDESKIKDKNELKEICELTSIDQVVLERAFSFRTVEAKQEKVSTTLNVAQAYYARDALAKNLYSRLFSWLVNRINESIKAQTKVRKKVMGVLDIYGFEIFEDNSFEQFIINYCNEKLQQIFIELTLKEEQEEYIREDIEWTHIDYFNNAIICDLIENNTNGILAMLDEECLRPGTVTDETFLEKLNQVCATHQHFESRMSKCSRFLNDTTLPHSCFRIQHYAGKVLYQVEGFVDKNNDLLYRDLSQAMWKAGHALIKSLFPEGNPAKVNLKRPPTAGSQFKASVATLMKNLQTKNPNYIRCIKPNDKKAAHIFSESLVCHQIRYLGLLENVRVRRAGYAFRQAYEPCLERYKMLCKQTWPHWKGPARSGVEVLFNELEIPVEEYSFGRSKIFIRNPRTLFQLEDLRKQRLEDLATLIQKIYRGWKCRTHFLLMKRSQVVIAAWYRRYAQQKRYQQIKSSALVIQSYIRGWKARKILRELKHQKRCKEAATTIAAYWHGTQARKERRRLKDEARNKHAIAVIWAFWLGSKARRELKRLKEEARRKHAVAVIWAYWLGLKVRREYRKFFRANAGKKIYEFTLQRIVQKYLLEMKNKMPSLSPIDKNWPSRPYLFLDSTHKELKRIFHLWRCKKYRDQFTDQQKLIYEEKLEASELFKDKKALYPSSVGQPFQGAYLEINKNPKYKKLKDAIEEKIIIAEVVNKINRANGKSTSRIFLLTNNNLLLADQKSGQIKSEVPLVDVTKVSMSSQNDGFFAVHLKEGSEAASKGDFLFSSDHLIEMATKLYRTTLSQTKQKLNIEISDEFLVQFRQDKVCVKFIQGNQKNGSVPTCKRKNNRLLEVAVP

Results are given in words; binding and its absence hold for the method and conditions named. In cells and extracts the contact can be indirect. These calls come from enrichment with a bait or labelling near it, and not all partners need be listed. Each block holds one binder with its values, some of them ahead of it.
